Measured values published in US20210260057A1, “COMPOSITIONS AND METHODS TARGETING GLUTAMINE AND ITS METABOLISM FOR DIAGNOSING AND TREATING CANCER AND THERAPY-ASSOCIATED SIDE EFFECTS” (CEDARS-SINAI MEDICAL CENTER, priority 2018, published 2021).
At least one structure is not confirmed: it was looked up by name or label, or the drawing left a doubt.

How the values were obtained:
[1] = system: prostate cancer (serum PSA); test: PSA response of PCa patients on androgen targeted therapy; assay type: in vivo, human; conditions: individual PCa patient; responsiveness to ADT based on serum PSA
From the text: Plasma glutamine level may be prognostic for ADT sensitivity. Considering the striking finding that glutamine can induce ADT resistance, we tested if glutamine concentrations can be associated with ADT sensitivity in prostate cancer patients. We measured blood plasma glutamine concentrations in 28 PCa patients that received ADT (Table 1). Of note, the specific androgen signaling-axis interventions in the patient pool included, androgen receptor antagonists: bicalutamide, enzalutamide, and apalutamide, as well as androgen synthesis inhibitors: leuprolide, goserelin, triptorelin, and abiraterone.

[2] = system: RASAL3 mRNA in NAF; test: RASAL3 mRNA expression (rtPCR) in NAF; assay type: cell-based, human; conditions: 5-day treatment; Bic 10^−5 M, Enza 10^−5 M, R1881 10^−9 M
Protocol: (§1) RNA expression level. All real-time PCR assays were carried out using three technical replicates and three independent cDNA syntheses on a 7500 Real-Time PCR System (Applied Biosystems). Data were normalized using an internal control gene, either GAPDH or β-actin. Relative quantification of expression levels (RQ) was calculated using the ^2-ΔΔCt method.

[3] = system: RASAL3 mRNA in CAF; test: RASAL3 mRNA expression (rtPCR) in CAF; assay type: cell-based, human; conditions: 5-day treatment; Bic 10^−5 M, Enza 10^−5 M, R1881 10^−9 M, 5-Aza 5 mmol/L
Protocol: as §1

[4] = system: RASAL3 promoter; test: Methylation specific PCR of RASAL3 exon 2 in CAF; assay type: cell-based, human; conditions: CAF after treatment
Protocol: (FIG. 13A) Quantitative rtPCR analysis of RASAL3 in NAF and CAF was performed following 5 day treatment with bicalutamide (Bic, 10^−5 M), enzalutamide (Enza, 10^−5 M), R1881 (10^−9 M), or 5-Azacytidine (5-Aza, […]). RASAL3 expression was normalized GAPDH expression. Data represent the mean±SEM. *P<0.05, ***P<0.001, and ****P<0.0001, by two-way ANOVA followed by multiple comparison. Results are the average of at least three independent experiments. (FIG. 13B) MS-PCR of the RASAL3 exon 2 methylation status in CAF after treatment with enzalutamide, R1881, 5-Azacytidine and bicalutamide was performed. The PCR products in the lanes marked “U” indicate unmethylated templates for RASAL3 gene, whereas the products in the lanes marked “M” indicate methylated templates. Data are representative of three independent experiments.

[5] = system: CWR22Rv1; test: qPCR of neuroendocrine marker genes, CWR22Rv1; assay type: cell-based, human; conditions: CWR22Rv1, rapamycin in combination with L-glutamine
Protocol: as §1

Structure (SMILES) | Outcome [1] | RASAL3 mRNA expression in NAF [2] | RASAL3 mRNA expression in CAF [3] | methylation of the RASAL3 promoter (methylation specific PCR) [4] | expression of glutamine-induced neuroendocrine gene panel [5]
C[C@]12CC[C@H](O)CC1=CC[C@@H]1[C@@H]2CC[C@]2(C)C(c3cccnc3)=CC[C@@H]12 [A, Abiraterone] | Non- and Responsive | – | – | – | –
CC(O)(CS(=O)(=O)c1ccc(F)cc1)C(=O)Nc1ccc(C#N)c(C(F)(F)F)c1 (stereo not drawn) [bicalutamide] | Responsive | downregulated | little effect | hypermethylation | –
CO[C@H]1C[C@@H]2CC[C@@H](C)[C@@](O)(O2)C(=O)C(=O)N2CCCC[C@H]2C(=O)O[C@H]([C@H](C)C[C@@H]2CC[C@@H](O)[C@H](OC)C2)CC(=O)[C@H](C)/C=C(\C)[C@@H](O)[C@@H](OC)C(=O)[C@H](C)C[C@H](C)/C=C/C=C/C=C/1C [rapamycin] | – | – | – | – | restoring its expression to control levels
